{
  "sequences": {"note": "By UniProt entry, the sequences of proteins in these tests, tags left out. Where a name states a change or a piece, a line headed by the entry shows the natural chain unless it says otherwise.", "UniProt P00390": "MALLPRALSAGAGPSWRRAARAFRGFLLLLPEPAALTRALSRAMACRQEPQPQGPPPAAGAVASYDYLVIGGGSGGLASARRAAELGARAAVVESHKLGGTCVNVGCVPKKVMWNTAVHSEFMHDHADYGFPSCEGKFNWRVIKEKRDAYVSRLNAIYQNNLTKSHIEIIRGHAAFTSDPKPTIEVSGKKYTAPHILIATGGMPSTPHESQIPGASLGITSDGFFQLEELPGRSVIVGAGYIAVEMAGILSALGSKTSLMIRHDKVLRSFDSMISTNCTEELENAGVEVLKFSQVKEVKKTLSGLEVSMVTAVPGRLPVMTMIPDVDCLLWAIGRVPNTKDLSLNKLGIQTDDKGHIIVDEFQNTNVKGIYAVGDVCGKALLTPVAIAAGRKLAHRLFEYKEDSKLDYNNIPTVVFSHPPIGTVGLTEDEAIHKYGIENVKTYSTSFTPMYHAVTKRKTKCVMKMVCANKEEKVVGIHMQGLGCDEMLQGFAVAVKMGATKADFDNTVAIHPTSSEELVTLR", "UniProt P13984, whole entry": "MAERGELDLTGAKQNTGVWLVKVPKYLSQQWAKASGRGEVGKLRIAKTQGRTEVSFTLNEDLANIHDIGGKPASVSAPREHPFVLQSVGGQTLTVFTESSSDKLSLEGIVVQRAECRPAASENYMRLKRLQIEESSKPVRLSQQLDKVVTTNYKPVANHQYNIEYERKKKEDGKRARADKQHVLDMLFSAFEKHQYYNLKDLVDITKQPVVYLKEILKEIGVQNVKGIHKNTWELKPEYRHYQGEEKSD", "UniProt P42694": "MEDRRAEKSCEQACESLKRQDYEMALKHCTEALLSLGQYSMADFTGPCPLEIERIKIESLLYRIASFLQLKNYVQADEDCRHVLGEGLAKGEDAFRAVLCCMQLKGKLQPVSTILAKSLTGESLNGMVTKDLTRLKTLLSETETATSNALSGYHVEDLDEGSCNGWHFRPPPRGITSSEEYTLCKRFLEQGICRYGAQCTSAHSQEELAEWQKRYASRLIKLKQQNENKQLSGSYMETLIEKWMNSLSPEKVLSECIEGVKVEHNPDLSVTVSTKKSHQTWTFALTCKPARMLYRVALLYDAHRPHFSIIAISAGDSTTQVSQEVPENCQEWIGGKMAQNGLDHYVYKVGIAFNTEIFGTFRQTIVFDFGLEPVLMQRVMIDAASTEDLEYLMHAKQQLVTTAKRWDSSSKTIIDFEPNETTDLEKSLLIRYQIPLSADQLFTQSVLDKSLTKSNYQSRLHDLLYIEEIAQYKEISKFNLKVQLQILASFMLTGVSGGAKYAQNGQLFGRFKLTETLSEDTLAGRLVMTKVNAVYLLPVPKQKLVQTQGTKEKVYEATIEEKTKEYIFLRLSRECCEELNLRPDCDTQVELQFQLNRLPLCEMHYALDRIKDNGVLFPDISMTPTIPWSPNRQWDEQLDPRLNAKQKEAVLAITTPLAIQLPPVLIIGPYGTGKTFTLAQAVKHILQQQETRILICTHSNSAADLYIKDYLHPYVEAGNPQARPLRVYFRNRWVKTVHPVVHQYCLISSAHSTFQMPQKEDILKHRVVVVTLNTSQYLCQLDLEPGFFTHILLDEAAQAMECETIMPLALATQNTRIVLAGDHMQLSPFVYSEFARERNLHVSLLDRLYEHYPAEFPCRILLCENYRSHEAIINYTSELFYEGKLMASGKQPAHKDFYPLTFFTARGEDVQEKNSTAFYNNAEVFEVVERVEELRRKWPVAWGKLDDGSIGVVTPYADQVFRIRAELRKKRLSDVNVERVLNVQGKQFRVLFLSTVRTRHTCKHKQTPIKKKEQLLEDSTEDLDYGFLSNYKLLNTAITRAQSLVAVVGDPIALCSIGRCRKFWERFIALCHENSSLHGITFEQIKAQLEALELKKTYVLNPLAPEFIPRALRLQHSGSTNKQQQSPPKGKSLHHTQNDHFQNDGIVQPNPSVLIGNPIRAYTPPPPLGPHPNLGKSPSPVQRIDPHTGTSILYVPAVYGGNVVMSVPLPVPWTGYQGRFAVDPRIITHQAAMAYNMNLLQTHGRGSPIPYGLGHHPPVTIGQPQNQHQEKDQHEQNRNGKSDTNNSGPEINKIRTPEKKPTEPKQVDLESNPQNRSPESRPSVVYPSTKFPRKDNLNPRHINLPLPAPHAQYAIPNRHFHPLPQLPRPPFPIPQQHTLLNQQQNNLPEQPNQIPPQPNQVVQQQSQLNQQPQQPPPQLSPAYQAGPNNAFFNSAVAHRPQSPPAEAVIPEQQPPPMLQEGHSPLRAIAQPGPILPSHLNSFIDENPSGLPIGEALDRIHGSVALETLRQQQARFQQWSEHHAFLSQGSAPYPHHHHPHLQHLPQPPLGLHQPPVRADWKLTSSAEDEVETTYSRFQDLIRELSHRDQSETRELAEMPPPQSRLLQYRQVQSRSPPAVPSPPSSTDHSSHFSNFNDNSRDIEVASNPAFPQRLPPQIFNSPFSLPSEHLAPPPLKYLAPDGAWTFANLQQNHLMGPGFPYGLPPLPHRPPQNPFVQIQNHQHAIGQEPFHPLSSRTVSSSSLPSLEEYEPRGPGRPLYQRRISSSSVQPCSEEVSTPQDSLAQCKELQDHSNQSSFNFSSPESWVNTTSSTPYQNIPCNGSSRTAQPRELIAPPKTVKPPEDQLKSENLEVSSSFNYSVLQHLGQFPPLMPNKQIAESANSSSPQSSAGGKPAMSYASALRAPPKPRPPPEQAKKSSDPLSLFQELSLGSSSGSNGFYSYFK", "UniProt Q7Z5G4, whole entry": "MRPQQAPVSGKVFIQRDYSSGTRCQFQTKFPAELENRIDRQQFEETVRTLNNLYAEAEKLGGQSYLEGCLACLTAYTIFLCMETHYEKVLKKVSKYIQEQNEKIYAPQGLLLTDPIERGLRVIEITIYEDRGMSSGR", "UniProt P60983, whole entry": "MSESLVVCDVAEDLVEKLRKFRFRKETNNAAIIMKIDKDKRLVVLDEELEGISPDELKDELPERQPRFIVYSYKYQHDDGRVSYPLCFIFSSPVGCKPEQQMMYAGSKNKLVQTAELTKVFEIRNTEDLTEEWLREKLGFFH", "UniProt P69905, whole entry": "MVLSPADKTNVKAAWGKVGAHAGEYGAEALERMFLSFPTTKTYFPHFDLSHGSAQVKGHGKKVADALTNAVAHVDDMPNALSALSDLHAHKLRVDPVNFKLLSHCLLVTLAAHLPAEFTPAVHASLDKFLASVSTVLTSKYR", "UniProt Q9P2D3": "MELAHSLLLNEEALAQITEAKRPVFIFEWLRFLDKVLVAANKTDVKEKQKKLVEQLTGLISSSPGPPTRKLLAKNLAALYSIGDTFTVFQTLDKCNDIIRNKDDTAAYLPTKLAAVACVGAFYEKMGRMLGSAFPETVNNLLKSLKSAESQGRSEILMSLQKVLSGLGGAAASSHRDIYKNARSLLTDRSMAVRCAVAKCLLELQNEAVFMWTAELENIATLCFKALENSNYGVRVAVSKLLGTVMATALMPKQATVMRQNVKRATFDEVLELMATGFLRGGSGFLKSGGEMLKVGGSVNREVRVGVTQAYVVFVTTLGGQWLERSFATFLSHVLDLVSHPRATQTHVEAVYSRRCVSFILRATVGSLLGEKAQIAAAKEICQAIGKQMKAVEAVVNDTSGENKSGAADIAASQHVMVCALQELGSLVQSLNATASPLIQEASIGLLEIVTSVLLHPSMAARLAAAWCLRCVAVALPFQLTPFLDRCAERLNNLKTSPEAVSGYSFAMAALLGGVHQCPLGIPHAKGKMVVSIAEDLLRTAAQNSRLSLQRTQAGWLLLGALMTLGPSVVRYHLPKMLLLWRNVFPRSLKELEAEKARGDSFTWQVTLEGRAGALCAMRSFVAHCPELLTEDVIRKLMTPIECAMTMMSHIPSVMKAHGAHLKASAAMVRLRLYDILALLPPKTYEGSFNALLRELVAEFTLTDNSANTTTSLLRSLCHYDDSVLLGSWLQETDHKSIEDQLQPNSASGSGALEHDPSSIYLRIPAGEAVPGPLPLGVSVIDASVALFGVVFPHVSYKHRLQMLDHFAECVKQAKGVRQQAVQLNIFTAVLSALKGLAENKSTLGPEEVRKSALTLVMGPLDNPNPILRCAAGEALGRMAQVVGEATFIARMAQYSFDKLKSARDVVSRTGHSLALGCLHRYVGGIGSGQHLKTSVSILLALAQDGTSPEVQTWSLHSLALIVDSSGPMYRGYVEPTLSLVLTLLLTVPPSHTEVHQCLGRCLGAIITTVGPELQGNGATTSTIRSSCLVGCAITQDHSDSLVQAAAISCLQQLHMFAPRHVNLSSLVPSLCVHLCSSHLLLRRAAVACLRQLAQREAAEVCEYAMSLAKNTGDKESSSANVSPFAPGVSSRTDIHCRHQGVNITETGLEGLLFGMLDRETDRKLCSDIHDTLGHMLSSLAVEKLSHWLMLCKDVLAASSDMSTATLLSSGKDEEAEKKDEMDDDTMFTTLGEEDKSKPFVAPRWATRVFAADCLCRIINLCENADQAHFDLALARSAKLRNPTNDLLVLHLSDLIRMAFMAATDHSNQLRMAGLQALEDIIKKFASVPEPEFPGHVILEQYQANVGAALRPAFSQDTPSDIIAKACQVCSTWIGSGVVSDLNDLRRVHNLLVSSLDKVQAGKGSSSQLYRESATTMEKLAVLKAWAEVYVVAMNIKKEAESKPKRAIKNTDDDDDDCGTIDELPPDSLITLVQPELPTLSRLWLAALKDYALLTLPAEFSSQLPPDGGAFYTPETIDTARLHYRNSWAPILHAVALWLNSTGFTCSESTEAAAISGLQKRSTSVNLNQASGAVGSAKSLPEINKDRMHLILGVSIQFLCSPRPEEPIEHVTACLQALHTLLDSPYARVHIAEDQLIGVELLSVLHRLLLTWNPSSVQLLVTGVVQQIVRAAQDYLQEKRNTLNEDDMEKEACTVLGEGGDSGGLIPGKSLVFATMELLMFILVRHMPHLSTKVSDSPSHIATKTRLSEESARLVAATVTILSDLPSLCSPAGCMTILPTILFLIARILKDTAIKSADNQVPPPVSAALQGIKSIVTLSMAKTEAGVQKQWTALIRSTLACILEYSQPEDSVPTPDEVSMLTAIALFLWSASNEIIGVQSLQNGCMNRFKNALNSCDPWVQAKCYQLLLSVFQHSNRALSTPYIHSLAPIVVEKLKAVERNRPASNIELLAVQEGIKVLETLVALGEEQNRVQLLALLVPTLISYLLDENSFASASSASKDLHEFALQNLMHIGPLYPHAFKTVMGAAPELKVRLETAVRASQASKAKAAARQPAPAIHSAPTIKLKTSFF", "UniProt P63218": "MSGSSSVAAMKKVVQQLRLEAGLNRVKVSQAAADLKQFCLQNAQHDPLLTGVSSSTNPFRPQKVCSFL", "UniProt Q08379": "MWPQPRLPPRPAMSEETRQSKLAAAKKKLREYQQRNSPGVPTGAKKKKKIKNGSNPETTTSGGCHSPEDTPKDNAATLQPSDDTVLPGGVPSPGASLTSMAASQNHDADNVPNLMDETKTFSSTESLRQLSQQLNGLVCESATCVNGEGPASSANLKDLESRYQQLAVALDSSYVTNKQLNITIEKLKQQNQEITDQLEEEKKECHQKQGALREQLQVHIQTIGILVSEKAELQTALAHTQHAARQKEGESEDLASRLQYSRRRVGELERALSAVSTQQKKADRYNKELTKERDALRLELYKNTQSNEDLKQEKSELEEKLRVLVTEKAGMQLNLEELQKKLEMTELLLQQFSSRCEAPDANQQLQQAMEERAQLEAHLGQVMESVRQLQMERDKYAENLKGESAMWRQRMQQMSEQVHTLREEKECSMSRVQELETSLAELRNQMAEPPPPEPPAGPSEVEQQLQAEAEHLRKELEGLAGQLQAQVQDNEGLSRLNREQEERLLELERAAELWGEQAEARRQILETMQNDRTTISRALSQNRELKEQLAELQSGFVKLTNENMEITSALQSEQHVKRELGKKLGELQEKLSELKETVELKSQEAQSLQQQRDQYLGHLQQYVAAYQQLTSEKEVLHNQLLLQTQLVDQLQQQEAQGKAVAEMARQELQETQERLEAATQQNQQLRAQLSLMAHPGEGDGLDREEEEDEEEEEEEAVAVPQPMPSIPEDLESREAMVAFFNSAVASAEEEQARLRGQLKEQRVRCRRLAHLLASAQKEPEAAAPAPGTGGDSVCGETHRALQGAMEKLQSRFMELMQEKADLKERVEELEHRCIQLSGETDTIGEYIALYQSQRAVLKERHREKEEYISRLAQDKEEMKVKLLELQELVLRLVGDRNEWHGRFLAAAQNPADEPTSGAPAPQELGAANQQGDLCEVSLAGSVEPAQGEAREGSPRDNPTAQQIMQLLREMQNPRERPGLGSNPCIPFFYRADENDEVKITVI", "UniProt Q9NZD2": "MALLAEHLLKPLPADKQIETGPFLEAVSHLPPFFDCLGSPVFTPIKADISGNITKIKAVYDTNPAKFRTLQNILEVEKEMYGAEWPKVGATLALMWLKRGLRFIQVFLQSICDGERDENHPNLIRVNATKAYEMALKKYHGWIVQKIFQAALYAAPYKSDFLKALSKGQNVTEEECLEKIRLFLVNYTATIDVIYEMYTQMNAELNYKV"},
  "source": "the supplement of paper PMC7666118",
  "note": "This is one part of the list.",
  "data": [
    {"compound": "COc1ccc(Cn2ccc3ccc(C(=O)NO)cc32)cc1", "assay": "dose-dependent thermal stabilisation call (2D-TPP, DLPTP, 10% FDR) (binary (1 = stabilised)); higher = stabilised by the compound", "conditions": "system: HL-60 intact cells; concentration range 0.04-10 µM", "values": [
      {"target": "GIGYF1 (UniProt O75420)", "dose-dependent thermal stabilisation call": "inactive: 0"},
      {"target": "GLG1 (UniProt Q92896)", "dose-dependent thermal stabilisation call": "inactive: 0"},
      {"target": "GSR (UniProt P00390)", "dose-dependent thermal stabilisation call": "inactive: 0"},
      {"target": "GHDC (UniProt Q8N2G8)", "dose-dependent thermal stabilisation call": "active: 1"},
      {"target": "GTF2F2 (UniProt P13984)", "dose-dependent thermal stabilisation call": "inactive: 0"},
      {"target": "HIST1H4A (UniProt P62805)", "dose-dependent thermal stabilisation call": "active: 1"},
      {"target": "GGCX (UniProt P38435)", "dose-dependent thermal stabilisation call": "inactive: 0"},
      {"target": "GTF3C4 (UniProt Q9UKN8)", "dose-dependent thermal stabilisation call": "inactive: 0"},
      {"target": "HDAC10 (UniProt Q969S8)", "dose-dependent thermal stabilisation call": "inactive: 0"},
      {"target": "HELZ (UniProt P42694)", "dose-dependent thermal stabilisation call": "inactive: 0"},
      {"target": "GRLF1 (UniProt Q9NRY4)", "dose-dependent thermal stabilisation call": "inactive: 0"},
      {"target": "GOLGA7 (UniProt Q7Z5G4)", "dose-dependent thermal stabilisation call": "inactive: 0"},
      {"target": "HLTF (UniProt Q14527)", "dose-dependent thermal stabilisation call": "inactive: 0"},
      {"target": "GMFB (UniProt P60983)", "dose-dependent thermal stabilisation call": "inactive: 0"},
      {"target": "GTF2I (UniProt P78347)", "dose-dependent thermal stabilisation call": "inactive: 0"},
      {"target": "GOPC (UniProt Q9HD26)", "dose-dependent thermal stabilisation call": "inactive: 0"},
      {"target": "GPAA1 (UniProt O43292)", "dose-dependent thermal stabilisation call": "inactive: 0"},
      {"target": "GPATCH8 (UniProt Q9UKJ3)", "dose-dependent thermal stabilisation call": "inactive: 0"},
      {"target": "GOLGA5 (UniProt Q8TBA6)", "dose-dependent thermal stabilisation call": "inactive: 0"},
      {"target": "HBA1 (UniProt P69905)", "dose-dependent thermal stabilisation call": "inactive: 0"},
      {"target": "HAGHL (UniProt Q6PII5)", "dose-dependent thermal stabilisation call": "inactive: 0"},
      {"target": "GPHN (UniProt Q9NQX3)", "dose-dependent thermal stabilisation call": "inactive: 0"},
      {"target": "HGF (UniProt P14210)", "dose-dependent thermal stabilisation call": "inactive: 0"},
      {"target": "HIST1H2AD (UniProt P20671)", "dose-dependent thermal stabilisation call": "inactive: 0"},
      {"target": "HERC5 (UniProt Q9UII4)", "dose-dependent thermal stabilisation call": "inactive: 0"},
      {"target": "HEATR5B (UniProt Q9P2D3)", "dose-dependent thermal stabilisation call": "inactive: 0"},
      {"target": "GRSF1 (UniProt Q12849)", "dose-dependent thermal stabilisation call": "inactive: 0"},
      {"target": "GPR89A (UniProt B7ZAQ6)", "dose-dependent thermal stabilisation call": "inactive: 0"},
      {"target": "GNG5 (UniProt P63218)", "dose-dependent thermal stabilisation call": "inactive: 0"},
      {"target": "GPX4 (UniProt P36969)", "dose-dependent thermal stabilisation call": "inactive: 0"},
      {"target": "GK5 (UniProt Q6ZS86)", "dose-dependent thermal stabilisation call": "inactive: 0"},
      {"target": "GOLGA2 (UniProt Q08379)", "dose-dependent thermal stabilisation call": "inactive: 0"},
      {"target": "GMFG (UniProt O60234)", "dose-dependent thermal stabilisation call": "inactive: 0"},
      {"target": "GOT2 (UniProt P00505)", "dose-dependent thermal stabilisation call": "inactive: 0"},
      {"target": "GLRX5 (UniProt Q86SX6)", "dose-dependent thermal stabilisation call": "inactive: 0"},
      {"target": "HDHD1A (UniProt Q08623)", "dose-dependent thermal stabilisation call": "inactive: 0"},
      {"target": "GLTP (UniProt Q9NZD2)", "dose-dependent thermal stabilisation call": "inactive: 0"}
    ]}
  ]
}
